{"source": "paper PMC5550846", "molecules": {"B1": {"name": "Beclin-1 (endogenous, mouse cortical neurons), O88597 1-448 (protein)", "chain": "MEGSKASSSTMQVSFVCQRCSQPLKLDTSFKILDRVTIQELTAPLLTTAQAKPGETQEEEANSGEEPFIETRQDGVSRRFIPPARMMSTESANSFTLIGEASDGGTMENLSRRLKVTGDLFDIMSGQTDVDHPLCEECTDTLLDQLDTQLNVTENECQNYKRCLEILEQMNEDDSEQLQRELKELALEEERLIQELEDVEKNRKVVAENLEKVQAEAERLDQEEAQYQREYSEFKRQQLELDDELKSVENQVRYAQIQLDKLKKTNVFNATFHIWHSGQFGTINNFRLGRLPSVPVEWNEINAAWGQTVLLLHALANKMGLKFQRYRLVPYGNHSYLESLTDKSKELPLYCSGGLRFFWDNKFDHAMVAFLDCVQQFKEEVEKGETRFCLPYRMDVEKGKIEDTGGSGGSYSIKTQFNSEEQWTKALKFMLTNLKWGLAWVSSQFYNK"}, "B2": {"name": "sphingosine kinase 2 (SPK2), HA-tagged, mouse (enzyme, UniProt Q9JIA7 1-617)", "chain": "MAPPPLLPVAASTPILHGEFGSYPANGPRFALTLTTQALHIQRLRPKPEARPRDGLVSLDEVSGCGTLQSRSPEDTAAYFCIYTYPRGRRGGRRRATRTFRADGATTYEENRAEAQRWATALTCLLRGVPLSGDQEITPELLPRKPRLLILVNPFGGRGLAWQRCMDHVVPMISEAGLSFNLIQTERQNHARELVQGLSLSEWEGIVTVSGDGLLYEVLNGLLDRPDWEDAVRMPIGVLPCGSGNALAGAVNHHGGFEQVVGVDLLLNCSLLLCRGGSHPLDLLSVTLASGSRCFSFLSVAWGFLSDVDIHSERFRALGSARFTLGAVLGLASLHTYRGRLSYLPATTEPALPIPGHSLPRAKSELVLAPAPAPAATHSPLHRSVSDLPLPLPQPALVSPGSPEPLPDLSLNGGGPELTGDWGGAGDAPLSPDPLLPSSPNALKTAQLSPIAEGPPEMPASSGFLPPTHSAPEASTWGPVDHLLPPLGSPLPQDWVTIEGEFVLMLGILPSHLCADLMAAPHARFDDGVVHLCWVRSGISRAALLRILLAMEHGNHFSLGCPHLGYAAARAFRLEPLTPRGLLTVDGELVEYGPIQAQVHPGLATLLTGPAGQKPQA"}}, "key": {"[1]": {"biological_target": "T1, sphingosine kinase 2 (SPK2), HA-tagged, mouse (mouse) (UniProt Q9JIA7)", "T1 sequence": "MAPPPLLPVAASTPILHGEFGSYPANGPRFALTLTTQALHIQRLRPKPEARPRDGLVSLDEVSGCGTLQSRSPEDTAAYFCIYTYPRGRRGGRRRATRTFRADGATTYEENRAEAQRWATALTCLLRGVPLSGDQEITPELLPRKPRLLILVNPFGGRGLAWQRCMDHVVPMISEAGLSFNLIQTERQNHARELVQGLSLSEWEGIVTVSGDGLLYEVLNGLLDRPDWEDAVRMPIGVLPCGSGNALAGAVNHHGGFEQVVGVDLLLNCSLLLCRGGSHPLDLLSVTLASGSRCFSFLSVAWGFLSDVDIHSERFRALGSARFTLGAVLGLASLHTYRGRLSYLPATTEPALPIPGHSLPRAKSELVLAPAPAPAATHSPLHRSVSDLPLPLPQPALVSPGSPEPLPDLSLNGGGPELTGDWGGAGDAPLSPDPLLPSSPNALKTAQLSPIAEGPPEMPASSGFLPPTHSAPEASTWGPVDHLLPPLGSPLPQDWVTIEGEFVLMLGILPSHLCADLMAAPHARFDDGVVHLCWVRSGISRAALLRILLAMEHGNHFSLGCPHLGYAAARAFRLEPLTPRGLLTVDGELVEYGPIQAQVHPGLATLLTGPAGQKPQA", "experiment": "co-IP; lysates of stable LV-SPK2-HT22 cells; immunoprecipitated with anti-HA and blotted for Bcl-2, or immunoprecipitated with anti-Bcl-2 and blotted for HA; lysis buffer Tris-HCl 50 mM pH 7.4, NaCl 150 mM, 0.05% sodium deoxycholate, 1% NP40"}, "[2]": {"biological_target": "T2, Bcl-2 (endogenous, mouse neural cells) (mouse (endogenous in HT22 and primary cortical neurons)), P10417", "T2 chain": "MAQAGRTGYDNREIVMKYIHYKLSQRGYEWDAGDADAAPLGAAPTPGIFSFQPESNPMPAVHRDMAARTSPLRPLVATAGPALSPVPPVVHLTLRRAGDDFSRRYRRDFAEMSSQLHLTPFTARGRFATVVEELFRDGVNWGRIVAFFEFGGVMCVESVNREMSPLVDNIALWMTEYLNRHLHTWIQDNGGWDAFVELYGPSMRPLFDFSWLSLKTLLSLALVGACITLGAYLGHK", "experiment": "co-IP; lysates of primary murine cortical neurons infected with LV-vector or LV-SPK2; immunoprecipitated with anti-Bcl-2 and protein G-agarose, blotted for Beclin-1; lysis buffer Tris-HCl 50 mM pH 7.4, NaCl 150 mM, 0.05% sodium deoxycholate, 1% NP40", "conditions": "remark: other sources report otherwise"}, "[3]": {"biological_target": "Bcl-2 (endogenous, mouse neural cells) (mouse (endogenous in HT22 and primary cortical neurons)) (UniProt P10417)", "experiment": "co-IP; lysates of stable LV-SPK2-HT22 cells; immunoprecipitated with anti-HA and blotted for Bcl-2, or immunoprecipitated with anti-Bcl-2 and blotted for HA; lysis buffer Tris-HCl 50 mM pH 7.4, NaCl 150 mM, 0.05% sodium deoxycholate, 1% NP40"}}, "note": "Results are given in words; binding and its absence hold for the method and conditions named. Binding seen in cells or lysates may run through a third protein. Some results given as binding are weak or reduced against the parent protein; the word gives no strength. For part of these data: Tags and fused reporters may be left off the sequences shown."}
{"molecule": "Bcl-2 (endogenous, mouse neural cells) (from UniProt P10417 1-236)", "values": [{"measurement": "binding", "setting": "[1]", "result": "binds"}]}
{"molecule": "B1", "values": [{"measurement": "binding", "setting": "[2]", "result": "binds"}]}
{"molecule": "B2", "values": [{"measurement": "binding", "setting": "[3]", "result": "binds"}]}
